Screening data, single-dose tests

Each number is a percent effect as filed.
How 0% and 100% were set is not recorded. Most values in the screen are low, and negative values occur.
This is an unselected part of the compounds tested.
A dash means the value is not listed here; it may have been measured.

T. brucei: 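Whole-parasite assay of Trypanosoma brucei over 72 hours; the read-out is not stated. Concentration: 30 µM. Direction is inferred from retests: higher values go with stronger inhibition. Values scatter widely below zero; nearly all retest evidence comes from the higher of the two concentrations used. About 64,000 compounds were tested under these conditions; 1.5% (about 940) showed 50% or more at least once.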
Toxoplasma: 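Assay of Toxoplasma gondii numbers, read through their beta-galactosidase reporter with a colour substrate. Tested at 10 µM. The record gives no direction; the compounds picked for IC50 retests had high values, so higher reads as fewer parasites. About 67,000 compounds were tested under these conditions; 0.38% (about 260) showed 50% or more at least once.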

| compound | T. brucei | Toxoplasma |
|---|---|---|
| `CC(=O)NCC(=O)N1CCN(Cc2cccnc2)c2ncccc2C1` | -18.45 | 19.07 |
| `COCc1c(C(=O)N2CCCC(C(=O)c3ccccc3)C2)noc1C` (stereo not given) | -15.81 | -8.169 |
| `COc1cc(CNC(=O)C(C)SC)cc(Br)c1OC` (stereo not given) | -0.1554 | 5.023 |
| `CCn1cc(-c2cc(C(=O)N3CCOCC3)c3cc(Cl)ccc3n2)cn1` | -49.9 | 5.588 |
| `CN1CCCN(C(=O)c2cccc(S(=O)(=O)NCC3(C)COC3)c2)CC1` | 4.433 | 16.27 |
| `O=C(Cc1cccs1)N1CCc2nnc(COc3cncnc3)n2CC1` | - | -5.434 |
| `COc1ccc(C(=O)NCC(c2cccn2C)N2CCCC2)cc1OC` (stereo not given) | -9.189 | 12.07 |
| `CC(=O)N1C[C@H](NS(=O)(=O)N2CCCC2)[C@@H](c2ccc(C)o2)C1` | -7.879 | 7.143 |
| `c1cncc(CN2CCc3c(CNc4nccs4)n[nH]c3C2)c1` | -22.63 | 4.219 |
| `Cc1cc(NC(=O)CN2CCCC2c2noc(C3CC3)n2)n(C)n1` (stereo not given) | -9.499 | -2.624 |
| `CN(C)CCN(Cc1ccccc1)C(=O)C1=NNC(=O)CC1` | -15.42 | - |
| `CC(O)CCN(C)S(=O)(=O)Cc1ccc(Cl)c(Cl)c1` (stereo not given) | -8.229 | 8.578 |
| `COc1cc2c(cc1OC)S(=O)(=O)N(Cc1ccccc1)C2=O` | -32.67 | -2.74 |
| `CCc1noc(C(C)N2CCN(Cc3nc(C)c(C)o3)CC2)n1` (stereo not given) | -57.22 | -18.77 |
| `Cc1nc2cc(O)nn2c(C)c1CCC(=O)NCc1cc(Br)cs1` | -9.631 | 7.344 |
| `Cc1cc(C)c2nc(CNC3CCCNC3=O)cc(O)c2c1` (stereo not given) | 24.34 | 5.211 |
| `COc1cc(C)nc(N2CCN(C(=O)COCC(F)(F)F)CC2)n1` | -26.39 | -16.47 |
| `CCc1nc(CC)n(CC(=O)N(C)CC(F)(F)F)n1` | -40.73 | 0.1608 |
| `Cc1ccc(-n2nnc(C(=O)NC(C)C)c2C2CC2)cc1` | -1.214 | 4.195 |
| `CS(=O)(=O)c1cn[nH]c1C1CCCN(C(=O)Cn2cccn2)C1` (stereo not given) | -18.19 | 1.58 |
| `CCOc1ncccc1CNC(=O)N1CCCC1c1ccsc1` (stereo not given) | -10.43 | 0.8809 |
| `COc1ccc2cc(NC(=O)CCCNc3ncccn3)cnc2c1` | -22.38 | -12.09 |
| `CC(C)NC(=O)C1CN(C(N)=O)Cc2ccnn2C1` (stereo not given) | -13.23 | 1.816 |
| `O=C(c1ccc(-n2ccnc2)nn1)N1CCCC1CCc1ccccc1` (stereo not given) | 25.21 | -1.829 |
| `CC(C)n1nc2c(cc1=O)CN(CCOc1ccccc1C#N)CC2` | -8.659 | 5.134 |
| `CCc1ccc(S(=O)(=O)N2CC3(COC(C)(C)OC3)C2)s1` | -25.59 | 19.95 |
| `CSCCC(Nc1nc(C)cc(C)n1)C(=O)NCC1CCOCC1` (stereo not given) | -6.38 | - |
| `Cc1nc(NC(=O)C(C)N(C)Cc2cccc(C#N)c2)sc1C` (stereo not given) | -47.33 | 15.86 |
| `CC(=O)N[C@H]1CCO[C@@H](c2cccc(NC(=O)Cc3ccccc3)c2)C1` | -30.28 | 19.42 |
| `CCc1cc(NC(C)(C)C)nc(N2CCOCC2)n1` | -20.88 | -1.712 |
| `Cc1cnn(CC2CCCN2Cc2nnc(C3CC3)o2)c1` (stereo not given) | -2.59 | 8.413 |
| `N#Cc1ccc(N2CCCC2Cn2cncn2)nc1` (stereo not given) | -23.1 | 2.482 |
| `COc1ccc(CC(=O)N2CCC3(CC2)CCN(CC(C)C)C3=O)cc1` | -16.22 | -13.5 |
| `CC(C)C1Nc2ccccc2C(=O)N1CC(=O)Nc1nc2c(s1)CCC2` (stereo not given) | -6.969 | - |
| `CC(C)NC(=O)CN(C)CC(=O)/N=c1/cc[nH]n1C(C)C1CC1` (stereo not given) | -52.59 | 2.488 |
| `Cc1cc(C(F)(F)F)n2nc(C3CCCN3C3CCSCC3)cc2n1.O=C(O)CC(O)(CC(=O)O)C(=O)O` (stereo not given) | 20.17 | -24.49 |
| `Cc1cc(C)n(C2CCCN(C(=O)CCc3nccs3)C2)n1` (stereo not given) | -10.04 | -50.97 |
| `Cc1nc2cc(CNC(=O)C3CC(=O)N(CCN(C)C)C3)ccc2n1C` (stereo not given) | 11.3 | 23.58 |
| `O=C(O)C(F)(F)F.O=C(O)C(F)(F)F.[H][C@]12CCN(c3ncc(F)cn3)[C@@]1([H])CC[C@H](COCc1ccccn1)O2` | -10.5 | 3.555 |
| `CN(C)[C@H]1C[C@@H](Cc2cc(CO)on2)C1(C)C` | 13.18 | 8.85 |
| `Cc1nc(C2CCCN2CCCS(=O)(=O)N(C)C)no1` (stereo not given) | -24.34 | -16.94 |
| `Cc1noc(C)c1CN1CCn2nc(CCC(=O)N3CCCC3)cc2C1` | -26.11 | 26.12 |
| `c1cnnc(N2CCCC(NCc3ccc(-n4ccnc4)cc3)C2)c1` (stereo not given) | 27.44 | -7.383 |
| `COCCCNC(=O)N1CCCC(c2nncn2C)C1` (stereo not given) | -8.386 | -3.704 |
| `[H][C@]12CNC[C@@]1(C(=O)N(C)Cc1cnc(NC)nc1)CN(C1CCCC1)C2` | 0.8723 | -9.214 |
| `COCCN(CCOC)Cc1nc2c(cnn2C)c(=O)[nH]1` | 0.5667 | -0.1208 |
| `CC(C)Cc1noc(CN2CCN(C(=O)c3cccc(F)c3)CC2)n1` | 2.781 | 19.93 |
| `NC(=O)C1(c2cnccn2)CCCN1Cc1ccc(F)c(F)c1` (stereo not given) | -8.515 | 1.678 |
| `Cn1ccnc1C1CCN(S(=O)(=O)c2ccc3oc(=O)[nH]c3c2)CC1` | -30.42 | - |
| `[H][C@]12CC[C@]([H])(CN(c3nc(C)nc4ccsc34)C1)[C@@H]2OC` | -23.3 | 70.73 |
| `COCCCNc1nccc(-c2c[nH][nH]c2=O)n1` | -38.17 | 7.773 |
| `COc1ccc(NC(=O)CCC2CCCN(Cc3ncon3)C2)cc1Cl` (stereo not given) | 43.5 | -5.176 |
| `O=S(=O)(c1cc(F)ccc1F)N1CCCC1c1ccco1` (stereo not given) | -14.89 | 14.52 |
| `COCCC(C)NC(=O)c1cc(Br)c2c(c1)OCCO2` (stereo not given) | -3.893 | 7.081 |
| `O=C(c1cnccn1)N1CCCC2(CCCN2Cc2cccnc2)C1` (stereo not given) | -11.05 | 4.003 |
| `CN(CC(=O)NC(Cc1ccsc1)c1cccnc1)Cc1ccccn1.Cl` (stereo not given) | -9.182 | -34.52 |
| `CCNC(=O)C1CCCN1S(=O)(=O)c1sc(=O)[nH]c1C` (stereo not given) | 10.19 | 1.947 |
| `CCn1[nH]c(C)c2c(C(F)(F)C(F)(F)F)cc(=O)nc1-2` | 17.32 | -8.519 |
| `O=C(NCCn1ccnc1)c1cccc(F)c1` | -16.51 | -3.704 |
| `CCC(C)CN(C)C(=O)NCc1ccccc1-n1cccn1` (stereo not given) | 6.524 | 1.658 |
| `O=C(Cc1csc(-c2ccco2)n1)N1CCN(c2nccs2)CC1` | 5.486 | -12.27 |
| `CS(=O)(=O)N1CCC2(CC1)c1ccccc1[C@@H](N1CCSCC1)[C@@H]2O` | 2.336 | 1.623 |
| `CCc1ncc2c(n1)CN(Cc1nnc(C)o1)CC2` | -92.46 | -3.284 |
| `Cc1cc(C)c(C#N)c(N2CCC(Cc3ccccc3)CC2)n1` | -5.036 | -2.69 |
| `O=C(O)C(F)(F)F.O=C(O)C(F)(F)F.c1csc(CN2CCCn3cnc(CN4CCCC4)c3C2)c1` | -3.91 | -2.288 |
| `Cl.Cn1cc(CN2CCN(CC3(c4ccccc4)CC3)CC2)cn1` | -12.69 | 0.0662 |

The first 8 entries again:

{"compound": "CC(=O)NCC(=O)N1CCN(Cc2cccnc2)c2ncccc2C1", "T. brucei": -18.45, "Toxoplasma": 19.07}
{"compound": "COCc1c(C(=O)N2CCCC(C(=O)c3ccccc3)C2)noc1C", "stereo": "stereo not given", "T. brucei": -15.81, "Toxoplasma": -8.169}
{"compound": "COc1cc(CNC(=O)C(C)SC)cc(Br)c1OC", "stereo": "stereo not given", "T. brucei": -0.1554, "Toxoplasma": 5.023}
{"compound": "CCn1cc(-c2cc(C(=O)N3CCOCC3)c3cc(Cl)ccc3n2)cn1", "T. brucei": -49.9, "Toxoplasma": 5.588}
{"compound": "CN1CCCN(C(=O)c2cccc(S(=O)(=O)NCC3(C)COC3)c2)CC1", "T. brucei": 4.433, "Toxoplasma": 16.27}
{"compound": "O=C(Cc1cccs1)N1CCc2nnc(COc3cncnc3)n2CC1", "Toxoplasma": -5.434}
{"compound": "COc1ccc(C(=O)NCC(c2cccn2C)N2CCCC2)cc1OC", "stereo": "stereo not given", "T. brucei": -9.189, "Toxoplasma": 12.07}
{"compound": "CC(=O)N1C[C@H](NS(=O)(=O)N2CCCC2)[C@@H](c2ccc(C)o2)C1", "T. brucei": -7.879, "Toxoplasma": 7.143}

From ChEMBL document CHEMBL3988442, “University of Dundee, Small-Polar-MMV Screening Library” (2021).